Two sequences from patent US20060003326 can be followed below.

Chains of the proteins cited; added tags and fusions are not shown.
UniProt P01148, whole entry, looked up, tested part not stated: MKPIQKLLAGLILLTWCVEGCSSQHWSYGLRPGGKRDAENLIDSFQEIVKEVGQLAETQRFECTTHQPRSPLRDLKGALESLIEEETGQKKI

The data set has as its target GnRH I (gonadotropin releasing hormone, gonadoliberin, decapeptide) (UniProt P01148). The data set can be described thus: activity in cells. Conditions: L-DNA (all L-nucleotides), GnRH (2 nM) preincubated 20 min with spiegelmer, Ca2+ release in CHO cells expressing human GnRH receptor (FLIPR), single-stranded DNA, mirror-image nucleic acid.

For at least one entry, the source does not settle the construct or the ends of the probe.

The IC50 is the point on the concentration scale where inhibition reaches its midpoint. Read a high IC50 as weaker potency in that assay.

With “CCAAGCTTGCGTAAGCAGTCTCCTCTCAGGGGAGGTTGGGCGGTGCGTAAGCACCGGTTTGCAGGGG [GnRH DNA spiegelmer (non-PEGylated)]”, the half-inhibitory concentration (IC50) was 20 nM.
Regarding “CCAAGCTTGCGTAAGCAGTCTCCTCTCAGGGGAGGTTGGGCGGTGCGTAAGCACCGGTTTGCAGGGG [PEG-GnRH DNA spiegelmer]”, the half-maximal inhibitory concentration (IC50) (5'-aminohexyl linker with branched 40 kDa PEG, variant of GnRH DNA spiegelmer (non-PEGylated)) came to 30 nM.
